Results are given in words; binding and its absence hold for the method and conditions named. Binding can be weak; no strength is given.
What was measured:
[1] = molecular target: Cyno plasma sIL-6R (cynomolgus monkey); assay: plasma potency ELISA, cyno plasma + human IL-6 50 ng/mL; sIL-6R captured on BN-12, bound IL-6 detected; blocked ligand IL-6
[2] = molecular target: Cyno IL-6R (cynomolgus monkey); assay: SPR Biacore 3000

| binding [1] | binding [2] | Binder |
| --- | --- | --- |
| binds | binds | IL6R65 (VHH) VHH: EVQLVESGGGLVQPGGSLRLSCAASGSIFKVNAMGWYRQAPGKGRELVAGIISGGSTNYADSVKGRFTISRDNAKNTLYLQMNSLRPEDTAVYYCAFVTTNSDYDLGRDYWGQGTLVTVSS |
| – | binds | IL6R03 (VHH, not shown: small tags and cut ends) VHH: EVQLVESGGGLVQAGGSLRLSCAASGSIFKVNAMGWYRQAPGKQRELVAGIISGGSTNYADSVKGRLTISRDNAKNTVYLQMNSLKPEDTAVYYCSFVTTNSDYDLGRDYWGQGTQVTVSS |

Reference: patent US20120077731A1
